Laboratory results: PubChem BioAssay AID1224830 (NIAID, 2016)
The deposit covers about 18,000 reagents; this is an unselected part. In the full data, about 2,900 (16%) got an active call. 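Calls are made per well; low scores hint the gene aids the LPS response, high scores that it dampens it.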 Entries without a mark were called inactive. Repeated entries: four replicate wells of each siRNA pool. No sequences are given here.

- Screen: 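Host factors that control LPS-induced TNF expression in human macrophages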 (primary screen)
- Cell system: human THP-1 monocytic leukaemia cells, TNF dual-luciferase reporter clone, PMA-differentiated to macrophage-like cells
- Reagents: siRNA pool against human genes, 50 nM
- Timing: LPS for 4 h, given about 3 days after siRNA transfection
- Challenge: bacterial LPS (TLR4 ligand), 10 ng/ml
- Read-out: 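TNF firefly reporter luminescence divided by renilla, normalised to the plate median, then turned into a robust z-score for each replicate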
- Direction: TNF reporter robust z-score: higher = stronger TNF reporter response to LPS
- Call rule: 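Each well counts as active if its z-score is over 2.8 or under -1.5; controls are left without a call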

| target | TNF reporter robust z-score |
| --- | --- |
| CFAP57 (GeneID 149465) | 1.24 |
| CFAP57 (GeneID 149465) | 1.51 |
| CFAP57 (GeneID 149465) | 1.87 |
| CFAP57 (GeneID 149465) | 0.49 |
| TLR9 (GeneID 54106) | 0.71 |
| TLR9 (GeneID 54106) | 3.12 (active) |
| TLR9 (GeneID 54106) | 2.55 |
| TLR9 (GeneID 54106) | 2.72 |
| AHRR (GeneID 57491) | -1.17 |
| AHRR (GeneID 57491) | -0.48 |
| AHRR (GeneID 57491) | -1.25 |
| AHRR (GeneID 57491) | -0.95 |
| ACADS (GeneID 35) | 1.64 |
| ACADS (GeneID 35) | 1.61 |
| ACADS (GeneID 35) | 1.45 |
| ACADS (GeneID 35) | 2 |
| AQP7 (GeneID 364) | -0.34 |
| AQP7 (GeneID 364) | -0.26 |
| AQP7 (GeneID 364) | 0.03 |
| AQP7 (GeneID 364) | -0.44 |
| GPR17 (GeneID 2840) | -0.02 |
| GPR17 (GeneID 2840) | 0.94 |
| GPR17 (GeneID 2840) | 0.27 |
| GPR17 (GeneID 2840) | 2.49 |
| CXCL5 (GeneID 6374) | 0.58 |
| CXCL5 (GeneID 6374) | 0.51 |
| CXCL5 (GeneID 6374) | 0.19 |
| CXCL5 (GeneID 6374) | -0.03 |
| DNAH10 (GeneID 196385) | 1.65 |
| DNAH10 (GeneID 196385) | 2.5 |
| DNAH10 (GeneID 196385) | 0.24 |
| DNAH10 (GeneID 196385) | 1.14 |
| PIP5KL1 (GeneID 138429) | 0.47 |
| PIP5KL1 (GeneID 138429) | 0.14 |
| PIP5KL1 (GeneID 138429) | -0.58 |
| PIP5KL1 (GeneID 138429) | 0.21 |
| VPS13C (GeneID 54832) | 2.14 |
| VPS13C (GeneID 54832) | 1.63 |
| VPS13C (GeneID 54832) | 1.48 |
| VPS13C (GeneID 54832) | 2.46 |
| PRKD2 (GeneID 25865) | 0.32 |
| PRKD2 (GeneID 25865) | 0.5 |
| PRKD2 (GeneID 25865) | 2.34 |
| PRKD2 (GeneID 25865) | 2.13 |
| SOCS1 (GeneID 8651) | -0.26 |
| SOCS1 (GeneID 8651) | -0.03 |
| SOCS1 (GeneID 8651) | -0.65 |
| SOCS1 (GeneID 8651) | 0.37 |

Records listed so far whose gene name starts with D or d:
| target | TNF reporter robust z-score |
| --- | --- |
| DNAH10 (GeneID 196385) | 1.65 |
| DNAH10 (GeneID 196385) | 2.5 |
| DNAH10 (GeneID 196385) | 0.24 |
| DNAH10 (GeneID 196385) | 1.14 |
